# Reference: PubChem BioAssay AID493014 (National Center for Advancing Translational Sciences (NCATS), 2011)
# The list shows a part of the results. The main result of the screen is listed elsewhere. These columns were measured beside it and carry no call. The list favours compounds with an active or inconclusive main result. The note in brackets gives the kind of curve behind each potency; many fits are weak.
# Test: qHTS Assay to Find Inhibitors of Chronic Active B-Cell Receptor Signaling
# Conditions: ABC-DLBCL IkBa-CBG/CBR reporter, luminescence ratio (green luciferase fused to IkBa over red control in TMD8 lymphoma cells), 4 h
# Outline: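 TMD8 human ABC-DLBCL cells with doxycycline-inducible IκBα–green luciferase fusion and unfused red luciferase, in 0.5% FBS medium; compounds up to 46 uM, 4 h at 37C. Green/red luminescence ratio, filter-overlap corrected, fitted to concentration-response curves.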
# [1] = measured here: CBR red luminescence, cell number
# [2] = measured here: IkBa-CBG green luminescence
Compound,AC50 [1],AC50 [2]
CSc1ccc(C(=O)C2CCCN(C(=O)c3cccnc3SC)C2)cc1 (centres undefined),"3.55 µM [rising, single point]",–
COc1cccc(Nc2c3c(nc4c(-c5ccccc5)c(C)nn24)CCC3)c1,"20.6 µM [falling, single point]",–
Cc1ccc(CSc2nnc(NC(=O)Cn3cnc4ccccc4c3=O)s2)cc1,"35.5 µM [rising, single point]",–
CCCCNc1c(-c2ccc(SC(C)CC)c(OC)c2)nc2ccc(C)cn12 (centres undefined),"16.4 µM [falling, partial curve]",–
O=C1COc2ccc(C(=O)NC3CC3)cc2N1,"3.98 µM [rising, partial curve, poor fit]",–
COc1ccccc1CNC(=O)CN1C(=O)NC(Cc2ccccc2)(c2ccccc2)C1=O (centres undefined),"0.164 µM [rising, full curve, poor fit]",–
Cc1nnc(Sc2nc3ccccc3o2)c2ccccc12,"18.4 µM [falling, single point]",–
CCc1nc(NCc2ccccn2)c2oc3ccccc3c2n1,"22.4 µM [falling, single point]",–
CCNC(=O)CC1SC(=Nc2ccccc2C)N(C)C1=O (centres undefined),"23.1 µM [rising, partial curve, poor fit]",–
COc1cc(-c2noc(C)c2C#CCO)cc(OC)c1OC,"11.2 µM [falling, partial curve, poor fit]",–
O=C(Oc1ccc2ccccc2c1Br)N1CCCCCC1,"14.1 µM [rising, partial curve, poor fit]",–
CC(Oc1ccc2c(-c3ccccc3)cc(=O)oc2c1)C(=O)O (centres undefined),"12.6 µM [rising, single point]",–
Cc1nc2nc(SCc3ccccc3)[nH]n2c(=O)c1C,"3.98 µM [falling, partial curve]",–
C=CCNC(=S)N1CCN(Cc2ccc3c(c2)OCO3)CC1,"31.6 µM [falling, partial curve, poor fit]",–
Cc1ccc2occ(/C=C/C(=O)c3ccccc3O)c(=O)c2c1,"6.31 µM [rising, single point]",–
O=S1(=O)CC(O)C(NCc2cccnc2)C1 (centres undefined),"16.4 µM [falling, single point]",–
O=C(NCc1n[nH]c(=S)n1-c1ccc(F)cc1)c1ccc(S(=O)(=O)N2CCCCC2)cc1,"7.94 µM [falling, partial curve, poor fit]",–
COC(=O)c1ccc(S(=O)(=O)N2CCN(C)CC2)n1C,"35.5 µM [rising, single point]",–
O=C(CSCc1ccccn1)Nc1ccccc1,"20.6 µM [rising, partial curve, poor fit]",–
CC(=O)c1cn(-c2ccc(Cl)cc2)c(=O)[nH]c1=O,"7.08 µM [rising, partial curve, poor fit]",–
C=CCNC(=S)NCCO,"35.5 µM [rising, single point]",–
O=C(CSc1cccc[n+]1[O-])c1cccs1,–,"28.2 µM [falling, single point]"

# A different layout for three compounds above.
Compound	AC50 [1]	AC50 [2]
COc1ccccc1CNC(=O)CN1C(=O)NC(Cc2ccccc2)(c2ccccc2)C1=O (centres undefined)	0.164 µM [rising, full curve, poor fit]	–
Cc1nnc(Sc2nc3ccccc3o2)c2ccccc12	18.4 µM [falling, single point]	–
CCc1nc(NCc2ccccn2)c2oc3ccccc3c2n1	22.4 µM [falling, single point]	–

# Carrying on:

Compound,AC50 [1],AC50 [2]
COc1ccc(C(=O)Nc2cc(OC)nc(OC)n2)cc1,"23.1 µM [falling, partial curve]",–
O=C(O)c1ccccc1C(=O)NCc1c(Cl)cccc1Sc1ccc(Cl)cc1,"4.47 µM [falling, single point]",–
CCOC(=O)NC(=O)/C(C#N)=N\Nc1cccc(Cl)c1,"0.562 µM [rising, full curve, poor fit]",–
COc1ccc(CCN(/C=C2\Sc3ccccc3C2=O)C(C)=O)cc1OC,"3.16 µM [falling, full curve, poor fit]",–
COC(=O)c1c(-c2ccccc2OC)sc2ccccc12,"5.17 µM [rising, partial curve, poor fit]",–
O=c1[nH]c(/C=C\c2ccc(O)c(Cl)c2)nc(O)c1[N+](=O)[O-],"5.62 µM [falling, full curve, poor fit]",–
CCCN(CC(=O)Nc1cccc(S(N)(=O)=O)c1)CC(=O)Nc1ccc(F)c(F)c1F,"6.31 µM [rising, single point]",–
Cc1noc(C)c1S(=O)(=O)NCCc1csc2nc(-c3ccc(Cl)cc3)nn12,"25.1 µM [falling, single point]",–
NSc1nc(N)c2nc(-c3ccccc3)c(-c3ccccc3)nc2n1,"11.2 µM [falling, partial curve, poor fit]",–
CCN(CC)c1ccc(NC(=S)NC(=O)C2CCC2)cc1,"35.5 µM [rising, single point]",–
CCn1c(SCC(=O)N2CCCC(C)C2)nnc1-c1ccco1 (centres undefined),"1.12 µM [rising, full curve]",–
COc1cccc(C(=O)NCC(=O)OCC(=O)C(C)(C)C)c1,"5.17 µM [rising, partial curve]",–
Cc1ccc(-c2nnc(Nc3ccccc3)o2)cc1,"1 µM [falling, full curve]",–
Cc1ccc(-c2cc(C(=O)NC3=NCCS3)c3cc(Br)ccc3n2)o1,"10.3 µM [falling, partial curve]",–
O=C(Cc1ccc(Br)c2ccccc12)N/N=C/c1ccccn1,"35.5 µM [rising, single point]","11.2 µM [falling, partial curve, poor fit]"
CCOCc1nnc(NC(=O)c2ccc(NC(C)=O)cc2)s1,"11.2 µM [falling, partial curve, poor fit]",–
COC(=O)c1sccc1NC(=O)Nc1ccc(Cl)c(Cl)c1,"7.31 µM [falling, partial curve]",–
CCCn1c(=O)c2c(nc3n2CC(C)CN3Cc2ccccc2)n(C)c1=O (centres undefined),"4.47 µM [falling, partial curve, poor fit]",–
Cc1ccccc1N(Cc1cc(=O)[nH]c2ccccc12)C(=O)CCl,"14.1 µM [falling, partial curve]",–
CCOC(=O)c1cc2cc(-c3c(C(=O)OCC)oc4cc(O)cc(O)c4c3=O)ccc2o1,"35.5 µM [falling, single point]",–
Cc1cccc(NC(=O)Cc2noc3ccccc23)c1,"23.1 µM [falling, single point]",–
